The test relates to BDF1 mice, P388 leukemia ip, median survival T/C. The test can be described thus: NCI In Vivo Anticancer Drug Screen. Data for tumor model P388 Leukemia (intraperitoneal) in B6D2F1 (BDF1) mice. To be noted: T/C endpoint: median survival time, higher T/C = longer survival. The essentials: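 Survival ratio, drug arm over vehicle arm, in mice with a transplanted tumour.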

The list shows only some results of the screen, not a fair sample: it is rich in T/C values a quarter to a half above the control, in often repeated tests (any T/C) and in doses without a T/C. Further doses and runs are listed elsewhere. T/C gives the treated animals as a percentage of the vehicle group. Some entries give survivors of the animals treated and no T/C: the source files T/C as zero there, which appears to mark a toxic dose or a test without result, not a measured value. Some doses without a T/C left all or most animals alive at the check, yet need not have been tolerated: survival well below the control is almost never listed, so the zero probably covers shortened survival too. Survivors were counted at the toxicity check, usually on the fifth day, unless a day is given; later deaths do not show. Schedule codes are those of the source, taken here to give the interval after Q, in days (D) or hours (H), and the number of doses after X. Where survival is the endpoint, the PubChem record calls one and a half times the control and up active, and a quarter to a half above the control has no call in these data; cut-offs in other NCI protocols can differ. Some T/C values carry the count of animals alive at the toxicity check (mostly the fifth day); without a count, all were alive then.

The record followed here is PubChem BioAssay AID328 (DTP/NCI, 2004).

In the case of `NNC(=O)c1ccccn1`, the survivor count is listed as 5 of 6 (dose: 200.0 mg/kg/injection, schedule: Q04DX003 (ip), vehicle: saline) and 0 of 6 (dose: 400.0 mg/kg/injection, schedule: Q04DX003 (ip), vehicle: saline).
As for `CCCCCCCCC(=O)N1CCOCC1`, the survivor count is recorded as 6 of 6 (dose: 9.37 mg/kg/injection, schedule: Q01DX009 (ip), vehicle: saline); 6 of 6 (dose: 18.75 mg/kg/injection, schedule: Q01DX009 (ip), vehicle: saline); 6 of 6 (dose: 37.5 mg/kg/injection, schedule: Q01DX009 (ip), vehicle: saline).
Turning to `O=C(O)c1c(-c2ccccc2)[nH]c2cc(Cl)ccc2c1=O`, the survivor count runs as follows: (dose: 25.0 mg/kg/injection, schedule: Q01DX009 (ip), vehicle: Klucel (hydroxypropylcellulose) (HPC)) 6 of 6; (dose: 200.0 mg/kg/injection, schedule: Q01DX009 (ip), vehicle: Klucel (hydroxypropylcellulose) (HPC)) 3 of 6; (dose: 300.0 mg/kg/injection, schedule: Q04DX003 (ip), vehicle: saline with Tween-80) 3 of 6; (dose: 400.0 mg/kg/injection, schedule: Q01DX009 (ip), vehicle: Klucel (hydroxypropylcellulose) (HPC)) 0 of 6. For the same compound, the T/C by setting is: (dose: 100.0 mg/kg/injection, schedule: Q01DX009 (ip), vehicle: Klucel (hydroxypropylcellulose) (HPC)) 127 % of control [5 of 6 alive]; (dose: 200.0 mg/kg/injection, schedule: Q04DX003 (ip), vehicle: saline with Tween-80) 131 % of control.
